Here are results for three molecules from PMC5421898.

The chains behind the UniProt entries cited, without tags or fusion partners. Residues count along the entry.
UniProt P19022, residues 26-906: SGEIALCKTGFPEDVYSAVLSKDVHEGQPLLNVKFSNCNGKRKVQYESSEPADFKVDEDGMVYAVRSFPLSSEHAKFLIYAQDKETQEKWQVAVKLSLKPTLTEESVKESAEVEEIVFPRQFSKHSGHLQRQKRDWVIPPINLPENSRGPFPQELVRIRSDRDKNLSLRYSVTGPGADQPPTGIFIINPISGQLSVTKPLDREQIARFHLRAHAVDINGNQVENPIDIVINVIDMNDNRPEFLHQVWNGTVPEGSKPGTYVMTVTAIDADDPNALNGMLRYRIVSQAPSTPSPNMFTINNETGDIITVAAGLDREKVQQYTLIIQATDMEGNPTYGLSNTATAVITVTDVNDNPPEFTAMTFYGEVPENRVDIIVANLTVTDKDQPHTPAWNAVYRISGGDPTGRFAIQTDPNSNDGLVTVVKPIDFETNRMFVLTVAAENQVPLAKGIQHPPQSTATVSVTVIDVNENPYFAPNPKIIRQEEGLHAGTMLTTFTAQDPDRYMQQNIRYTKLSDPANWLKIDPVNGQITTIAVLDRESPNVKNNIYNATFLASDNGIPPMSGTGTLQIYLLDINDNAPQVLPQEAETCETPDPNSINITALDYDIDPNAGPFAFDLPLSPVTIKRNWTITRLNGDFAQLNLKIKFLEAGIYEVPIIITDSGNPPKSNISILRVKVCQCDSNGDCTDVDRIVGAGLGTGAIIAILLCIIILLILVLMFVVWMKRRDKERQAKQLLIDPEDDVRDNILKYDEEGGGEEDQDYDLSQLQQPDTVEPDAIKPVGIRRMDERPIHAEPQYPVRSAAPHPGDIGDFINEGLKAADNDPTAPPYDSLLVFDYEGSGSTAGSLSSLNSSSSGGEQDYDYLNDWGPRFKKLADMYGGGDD
UniProt P35222: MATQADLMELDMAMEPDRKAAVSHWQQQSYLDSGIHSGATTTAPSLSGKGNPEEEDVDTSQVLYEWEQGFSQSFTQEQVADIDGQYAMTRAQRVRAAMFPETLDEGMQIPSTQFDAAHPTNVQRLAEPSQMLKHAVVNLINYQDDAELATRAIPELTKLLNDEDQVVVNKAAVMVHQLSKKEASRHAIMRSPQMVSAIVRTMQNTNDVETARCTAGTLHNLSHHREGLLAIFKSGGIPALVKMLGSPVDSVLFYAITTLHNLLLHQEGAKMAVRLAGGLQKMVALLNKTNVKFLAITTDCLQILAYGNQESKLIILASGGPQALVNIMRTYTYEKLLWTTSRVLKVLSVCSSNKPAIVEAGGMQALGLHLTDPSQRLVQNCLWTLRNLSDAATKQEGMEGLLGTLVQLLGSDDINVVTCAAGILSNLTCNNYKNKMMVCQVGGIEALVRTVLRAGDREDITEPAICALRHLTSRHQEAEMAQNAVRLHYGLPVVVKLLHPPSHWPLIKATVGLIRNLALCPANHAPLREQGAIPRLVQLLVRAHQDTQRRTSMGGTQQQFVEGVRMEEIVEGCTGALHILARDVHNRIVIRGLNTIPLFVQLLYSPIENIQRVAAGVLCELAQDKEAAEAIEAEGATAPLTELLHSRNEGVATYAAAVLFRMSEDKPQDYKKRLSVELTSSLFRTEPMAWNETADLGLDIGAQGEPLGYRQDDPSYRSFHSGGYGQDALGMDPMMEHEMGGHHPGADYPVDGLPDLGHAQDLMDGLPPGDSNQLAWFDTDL

No constants are given. Whether binding was seen depends on the method and setting. Binding seen in cells or lysates may run through a third protein. Some results given as binding are weak or reduced against the parent protein; the word gives no strength.

Experiment [1] addresses precursor N-cadherin (proN-cadherin) (human (endogenous in U251)) (UniProt P19022). In words: co-IP; cell membrane protein extracts of U251 cells (untreated, vector or pro-CDH2 transfected); 2 ug first antibody, protein A+G agarose, three washes with lysis buffer, western blot; the precipitating antibody is not told for Figure 3C, D; proN-cadherin antibody for Figure 6.
Experiment [2] has the same target. The experiment can be described thus: co-IP; data not shown: immunoprecipitation of proN-cadherin from U251 cells with or without GDNF, western blot for β-catenin and p120-catenin.
Experiment [3] has as its target precursor N-cadherin (proN-cadherin), over-expressed from the vector EF1A-proCDH2-IRES-EGFP (human) (UniProt P19022). In words: co-IP; cell membrane protein extracts of U251 cells (untreated, vector or pro-CDH2 transfected); 2 ug first antibody, protein A+G agarose, three washes with lysis buffer, western blot; the precipitating antibody is not told for Figure 3C, D; proN-cadherin antibody for Figure 6. Background: A western blot detects proteins with antibodies after separation by electrophoresis.

The target of experiment [4] is precursor N-cadherin (proN-cadherin) (human (endogenous in U251)) (UniProt P19022). The description is as above. This is another data set of the same source.

As to β-catenin (from UniProt P35222 1-781), the binding result in experiment [1] and in experiment [2] was “binds” each time.

B1: p120-catenin (protein, UniProt O60716 1-968)
chain: MDDSEVESTASILASVKEQEAQFEKLTRALEEERRHVSAQLERVRVSPQDANPLMANGTLTRRHQNGRFVGDADLERQKFSDLKLNGPQDHSHLLYSTIPRMQEPGQIVETYTEEDPEGAMSVVSVETSDDGTTRRTETTVKKVVKTVTTRTVQPVAMGPDGLPVDASSVSNNYIQTLGRDFRKNGNGGPGPYVGQAGTATLPRNFHYPPDGYSRHYEDGYPGGSDNYGSLSRVTRIEERYRPSMEGYRAPSRQDVYGPQPQVRVGGSSVDLHRFHPEPYGLEDDQRSMGYDDLDYGMMSDYGTARRTGTPSDPRRRLRSYEDMIGEEVPSDQYYWAPLAQHERGSLASLDSLRKGGPPPPNWRQPELPEVIAMLGFRLDAVKSNAAAYLQHLCYRNDKVKTDVRKLKGIPVLVGLLDHPKKEVHLGACGALKNISFGRDQDNKIAIKNCDGVPALVRLLRKARDMDLTEVITGTLWNLSSHDSIKMEIVDHALHALTDEVIIPHSGWEREPNEDCKPRHIEWESVLTNTAGCLRNVSSERSEARRKLRECDGLVDALIFIVQAEIGQKDSDSKLVENCVCLLRNLSYQVHREIPQAERYQEAAPNVANNTGPHAASCFGAKKGKDEWFSRGKKPIEDPANDTVDFPKRTSPARGYELLFQPEVVRIYISLLKESKTPAILEASAGAIQNLCAGRWTYGRYIRSALRQEKALSAIADLLTNEHERVVKAASGALRNLAVDARNKELIGKHAIPNLVKNLPGGQQNSSWNFSEDTVISILNTINEVIAENLEAAKKLRETQGIEKLVLINKSGNRSEKEVRAAALVLQTIWGYKELRKPLEKEGWKKSDFQVNLNNASRSQSSHSYDDSTLPLIDRNQKSDKKPDREEIQMSNMGSNTKSLDNNYSTPNERGDHNRTLDRSGDLGDMEPLKGTTPLMQDEGQESLEEELDVLVLDDEGGQVSYPSMQKI
Take B1: in experiment [2], the binding result is on record as “binds”.

B2: glial cell line-derived neurotrophic factor (GDNF) (ligand, UniProt P39905 78-211)
chain: SPDKQMAVLPRRERNRQAAAANPENSRGKGRRGQRGKNRGCVLTAIHLNVTDLGLGYETKEELIFRYCSGSCDAAETTYDKILKNLSRNRRLVSDKVGQACCRPIAFDDDLSFLDDNLVYHILRKHSAKRCGCI
B2: the binding result in experiment [3] and in experiment [4] was “binds” in each case.
